# Percent effect of library compounds

Data taken from ChEMBL document CHEMBL3988442, “University of Dundee, Small-Polar-MMV Screening Library” (2021).

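Phenotypic screen: M. tuberculosis growth, glucose 7H9 medium, 3 days; the read-out is not stated. Compounds at 50 µM. The record gives no direction; compounds that gave an IC50 in retests scored well above the rest, so higher reads as more growth inhibition. Size under these conditions: about 69,000 compounds, about 760 of them at 50% or above in at least one test.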

Each number is a percent effect as filed. The controls that fix the scale are not given in the record; negative values are as filed. This is an unselected part of the compounds tested. Two or more numbers in one place are separate tests of the same structure; such repeats can differ widely.

Result for CCc1nnc(Nc2cc(C)nc(C3CN(C(C)=O)CCO3)c2)s1 (centres unmarked) was -10.53%. Cc1cc(CN2CCN(C(C)c3nc(C4CC4)no3)CC2)no1 (centres unmarked) gave -14.32%. CC1Oc2c(cccc2C(=O)N2CCCCCC2)NC1=O (centres unmarked) read -1.061% and -17.17%. For COc1cccc(CN2CCCCCC2c2cccc(F)c2)c1O (centres unmarked) the result was -1.828%. For O=C(O)C(F)(F)F.[H][C@]12CCC[C@@H](CNc3nccn3C)[C@@]1([H])CN(Cc1cccnc1)C2 the result was -6.182%.

With CCN(C)C[C@@H]1CN(C(=O)c2cc(-c3ccc(F)cc3)n[nH]2)C[C@@H]1CO the screen gave 11.95%. For Cn1nc2c(cc1=O)CN(Cc1ccc(-n3cccn3)cc1)CC2 the result was 13.16%. For CC(Nc1nc2c(cnn2C)c(=O)[nH]1)c1ccc2c(c1)CCCC2 (centres unmarked) the result was 44.11%. With CC(C)c1nn(C)c(N2CCOCC2)c1CNC(C)c1cccs1 (centres unmarked) the screen gave -7.894%. For CCc1nc(CN2CCCN(c3nc4ccccc4o3)CC2)no1 the result was -56.84%.

Cn1cc(C(=O)NC(Cn2cccn2)C(C)(C)C)cn1 (centres unmarked) gave 1.121%. O=S(=O)(c1ccccc1F)N1CCCC(c2nccs2)C1 (centres unmarked) gave 0.06326%. For O=C(CN1CCC(c2cc(=O)n3c(n2)CCCCC3)CC1)N1CCCC1 the result was -9.413%. Result for COCC(O)CN(C)C(=O)c1cccc(-c2csc(C)n2)c1 (centres unmarked) was -3.026% and -3.763%. COCCNC(=O)c1cc(COc2cncc(Cl)c2)on1 gave 21.59%.

For CN1CC(=O)N(c2cccnc2)CC12CCN(C(=O)c1cccn1C)C2.O=C(O)C(F)(F)F.O=C(O)C(F)(F)F (centres unmarked) the result was -19.94%. For OCC(CO)Nc1ccc2ccc(Cl)c(Cl)c2n1 the result was -2.39%. For O=C(NCCCn1nc2ccccn2c1=O)Nc1ccc(F)cc1F the result was 12.22%. Cc1cc(C(=O)NC2=NCCS2)c(C)n1-c1ccccn1 gave 15%. With CN1CCN(C2CCCC2)C(CCO)C1 (centres unmarked) the screen gave -22.82%.

With CCCn1cc(NC(=O)c2cccc3cccnc23)ccc1=O the screen gave -11.08%. Result for Cc1cc(C2CCCN2Cc2ccc(C(=O)Nc3nccs3)cc2)on1 (centres unmarked) was -30.34%. With Cc1nc(C2CCCN2C(=O)CCCn2cccn2)no1 (centres unmarked) the screen gave 15.66%. Result for CSCCC(=O)NS(=O)(=O)c1ccc2c(c1)OCCO2 was 3.672%. Result for CC(C)Oc1ncccc1CNC(=O)N1CCC(C(N)=O)C1 (centres unmarked) was -22.35%.

O=C(O)C(F)(F)F.O=C(O)C(F)(F)F.O=C(O)C(F)(F)F.[H][C@@]12COC[C@]1(COc1cccnc1)CN(Cc1cccc(C)n1)C2 gave -16.51%. O=C(NCCc1cc(F)ccc1F)NCC(O)C1CC1 (centres unmarked) read 17.31%. For COc1cc(F)ccc1NC(=O)NCCNC(=O)OC(C)(C)C the result was -0.7582% and -4.082%.

The last 3 entries again:

For O=C(O)C(F)(F)F.O=C(O)C(F)(F)F.O=C(O)C(F)(F)F.[H][C@@]12COC[C@]1(COc1cccnc1)CN(Cc1cccc(C)n1)C2 the result was -16.51%.
For O=C(NCCc1cc(F)ccc1F)NCC(O)C1CC1 (centres unmarked) the result was 17.31%.
For COc1cc(F)ccc1NC(=O)NCCNC(=O)OC(C)(C)C the result was -0.7582% and -4.082%.